Experimental findings from article PMC7046733, “Plantaricin NC8 αβ exerts potent antimicrobial activity against Staphylococcus spp. and enhances the effects of antibiotics” (Scientific Reports, 2020) are described below.

The test system of this assay is S. aureus CCUG 35601 (MRSA). The experiment in a line: Broth microdilution MIC/MBC. To be noted: Staphylococcus aureus, 24 h. In kind it is cell-based. As for the experimental part: The broth microdilution method was used to determine minimal inhibitory concentration (MIC) and minimal bactericidal concentration (MBC). Briefly, two-fold serial dilutions of the peptides were used and the final concentrations ranged between 0.097–50 µM. The final concentrations of the antibiotics vancomycin and teicoplanin ranged between 0.097–50 µg/ml, while rifampicin ranged between 0.0019–1 µg/ml and gentamicin 0.0097–5 µg/ml. The inhibitory and bactericidal effects of peptides together with antibiotics were studied by using the same concentration series of antibiotics with constant, sub-MIC concentrations, of the peptides in all the wells (see figure legends). […] MBC was determined as the lowest concentration where no growth of bacterial colonies (10 µl) was observed on blood-agar plates. All experiments were repeated at least three times. The combined effect of teicoplanin and PLNC8 αβ against S. epidermidis ATCC 12228 was evaluated by the microdilution checkerboard method. Briefly, two-fold serial dilutions of the antibiotics and PLNC8 αβ were prepared together in microtiter plates, either alone or in combination. The MIC values were determined visually and spectroscopically, and the fractional inhibitory concentration (ΣFIC) was calculated by the equation (MIC of PLNC8 αβ in combination/MIC of PLNC8 αβ alone) + (MIC of antibiotic in combination/MIC of antibiotic alone). […]
(In general: Broth dilution looks for growth in wells or tubes with falling amounts of substance.)

Consider `CN[C@H](CC(C)C)C(=O)N[C@H]1C(=O)N[C@@H](CC(N)=O)C(=O)N[C@H]2C(=O)N[C@H]3C(=O)N[C@H](C(=O)N[C@H](C(=O)O)c4cc(O)cc(O)c4-c4cc3ccc4O)[C@H](O)c3ccc(c(Cl)c3)Oc3cc2cc(c3O[C@@H]2O[C@H](CO)[C@@H](O)[C@H](O)[C@H]2O[C@H]2C[C@](C)(N)[C@H](O)[C@H](C)O2)Oc2ccc(cc2Cl)[C@H]1O` [Vancomycin, vancomycin], for which the MIC (in general, the least concentration at which growth counts as inhibited) amounted to 1.5 µg/mL.
